From the supplement of paper PMC10994270
The other results are listed elsewhere or left out.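 The calls were made as follows: active = probability of classifying as wild-type above 0.505; inactive = 0.505 or below.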 Repeats are few or missing, and single values can be far off.

Test system: SORL1-/- neural progenitor cells (hiPSC WTSIi004-B derived)
Test: probability of classification as wild-type phenotype (neural network, relative to DMSO-treated WT vs SORL1-/- controls) (fraction); higher = more similar to wild-type morphology (phenotypic rescue)
Conditions: 24 h
[1] = 1000 nM, SORL1-/- sub-clone: XE10
[2] = 100 nM, SORL1-/- sub-clone: WB8
[3] = 100 nM, SORL1-/- sub-clone: WC7
[4] = 300 nM, SORL1-/- sub-clone: WB8
[5] = 1000 nM, SORL1-/- sub-clone: WB8
[6] = 100 nM, SORL1-/- sub-clone: XE10
[7] = 300 nM, SORL1-/- sub-clone: WC7
[8] = 1000 nM, SORL1-/- sub-clone: WC7
[9] = 300 nM, SORL1-/- sub-clone: XE10

## CCN1CCN(Cc2ccc(Nc3ncc(F)c(-c4cc(F)c5nc(C)n(C(C)C)c5c4)n3)nc2)CC1 [Abemaciclib]
[1]
  probability: active: 0.551

## CC1=C(/C=C/C(C)=C/C=C/C(C)=C/CO)C(C)(C)CCC1 [Retinol]
[1]
  probability: active: 0.708

## COc1cc([C@@H]2c3cc4c(cc3[C@@H](O[C@@H]3O[C@@H]5CO[C@@H](C)O[C@H]5[C@H](O)[C@H]3O)[C@H]3COC(=O)[C@H]23)OCO4)cc(OC)c1O [Etoposide]
[2]
  probability: active: 0.752
[3]
  probability: active: 0.683
[4]
  probability: active: 1
[5]
  probability: active: 0.891
[1]
  probability: active: 0.71

## NCCNc1ccc(NCCN)c2c1C(=O)c1ccncc1C2=O.O=C(O)/C=C\C(=O)O.O=C(O)/C=C\C(=O)O [Pixantrone dimaleate]
[2]
  probability: active: 0.681
[3]
  probability: active: 0.513
[6]
  probability: active: 0.714
[4]
  probability: active: 0.742
[7]
  probability: active: 0.791
[5]
  probability: active: 0.656

## CC(C)C[C@H](NC(=O)[C@H](CCc1ccccc1)NC(=O)CN1CCOCC1)C(=O)N[C@@H](Cc1ccccc1)C(=O)N[C@@H](CC(C)C)C(=O)[C@@]1(C)CO1 [Carfilzomib]
[3]
  probability: active: 0.939
[6]
  probability: active: 0.773
[7]
  probability: active: 0.92
[5]
  probability: active: 0.95
[8]
  probability: active: 0.976
[1]
  probability: active: 0.887

## Nc1ccn([C@@H]2O[C@H](CO)[C@@H](O)[C@@H]2O)c(=O)n1 [Cytarabine]
[2]
  probability: active: 1
[3]
  probability: active: 0.993
[4]
  probability: active: 0.838
[7]
  probability: active: 0.741
[9]
  probability: active: 0.736
[5]
  probability: active: 1
[8]
  probability: active: 0.989
[1]
  probability: active: 0.692

## Cl.N=c1ccn2c(n1)O[C@H]1[C@H](O)[C@@H](CO)O[C@H]12 [Cyclocytidine hydrochloride]
[2]
  probability: active: 0.747
[3]
  probability: active: 0.733
[4]
  probability: inactive: 0.502
[7]
  probability: active: 0.719
[9]
  probability: active: 0.983
[5]
  probability: active: 0.747
[1]
  probability: active: 0.606

## CC[C@]1(O)C[C@H]2C[N@@](CCc3c([nH]c4ccccc34)[C@@](C(=O)OC)(c3cc4c(cc3OC)N(C)[C@H]3[C@@](O)(C(=O)OC)[C@H](OC(C)=O)[C@]5(CC)C=CCN6CC[C@]43[C@@H]65)C2)C1.O=S(=O)(O)O [Vinblastine sulfate]
[2]
  probability: active: 0.998
[3]
  probability: inactive: 0.5

## CC[C@@]1(O)C(=O)OCc2c1cc1n(c2=O)Cc2cc3c(CN(C)C)c(O)ccc3nc2-1 [Topotecan]
[2]
  probability: active: 0.918
[3]
  probability: active: 0.871
[6]
  probability: active: 0.794
[4]
  probability: active: 0.923
[7]
  probability: active: 0.855
[9]
  probability: active: 0.745
[5]
  probability: active: 0.881
[8]
  probability: active: 0.993

## C/C=C1\NC(=O)[C@H]2CSSCC/C=C/[C@H](CC(=O)N[C@H](C(C)C)C(=O)N2)OC(=O)[C@H](C(C)C)NC1=O [Romidepsin]
[2]
  probability: active: 0.684
[3]
  probability: active: 0.681
[4]
  probability: active: 0.508

## C=CC(=O)Nc1cccc(Oc2nc(Nc3ccc(N4CCN(C)CC4)cc3)nc3ccsc23)c1 [Olmutinib]
[6]
  probability: active: 0.659
[4]
  probability: active: 0.617
[5]
  probability: active: 0.999
[1]
  probability: active: 0.741

## COc1cccc2c1C(=O)c1c(O)c3c(c(O)c1C2=O)C[C@@](O)(C(=O)CO)C[C@@H]3O[C@H]1C[C@H](N)[C@H](O)[C@H](C)O1.Cl [Doxorubicin hydrochloride]
[3]
  probability: active: 0.995
[4]
  probability: active: 0.6
[9]
  probability: active: 0.78
[5]
  probability: active: 0.982
[8]
  probability: active: 0.994
[1]
  probability: active: 0.84

## CC(=O)c1c(C)c2cnc(Nc3ccc(N4CCNCC4)cn3)nc2n(C2CCCC2)c1=O.Cl [Palbociclib hydrochloride]
[6]
  probability: active: 0.637
[5]
  probability: active: 0.74

## COc1cccc2c1C(=O)c1c(O)c3c(c(O)c1C2=O)C[C@@](O)(C(=O)CO)C[C@@H]3O[C@H]1C[C@H](N)[C@@H](O)[C@H](C)O1.Cl [Epirubicin hydrochloride]
[2]
  probability: active: 0.673
[6]
  probability: active: 0.517
[7]
  probability: active: 0.996
[9]
  probability: active: 0.674
[5]
  probability: active: 0.98
[8]
  probability: active: 0.977
[1]
  probability: active: 0.971

## Nc1nc(Cl)nc2c1ncn2[C@@H]1O[C@H](CO)[C@@H](O)[C@@H]1F [Clofarabine]
[3]
  probability: active: 0.583
[6]
  probability: active: 0.669
[7]
  probability: active: 1
[9]
  probability: active: 0.512
[5]
  probability: active: 0.826
[8]
  probability: active: 0.996

## CC(=O)c1c(C)c2cnc(Nc3ccc(N4CCNCC4)cn3)nc2n(C2CCCC2)c1=O.O=S(=O)(O)CCO [Palbociclib Isethionate]
[3]
  probability: inactive: 0.502
[7]
  probability: active: 0.596

## CC[C@@]1(O)C(=O)OCc2c1cc1n(c2=O)Cc2cc3c(CN(C)C)c(O)ccc3nc2-1.Cl [Topotecan hydrochloride]
[2]
  probability: active: 0.751
[4]
  probability: active: 0.727
[7]
  probability: active: 0.753
[9]
  probability: active: 0.898
[8]
  probability: active: 0.986
[1]
  probability: active: 0.675

## CC[C@@H]1C(=O)N(C)c2cnc(Nc3ccc(C(=O)N[C@H]4CC[C@H](N5CCN(CC6CC6)CC5)CC4)cc3OC)nc2N1C(C)C [Volasertib]
[2]
  probability: active: 0.631
[4]
  probability: active: 0.791
[7]
  probability: active: 0.748

## CC(C)C[C@H](NC(=O)[C@H](Cc1ccccc1)NC(=O)c1cnccn1)B(O)O [Bortezomib]
[2]
  probability: active: 0.99
[3]
  probability: active: 0.986
[6]
  probability: active: 0.615
[4]
  probability: active: 0.858
[7]
  probability: active: 0.976
[9]
  probability: active: 0.746
[5]
  probability: active: 0.999
[8]
  probability: active: 1
[1]
  probability: active: 0.997

## CC[C@@]1(O)C(=O)OCc2c1cc1n(c2=O)Cc2cc3cc(O)ccc3nc2-1 [10-Hydroxycamptothecin]
[2]
  probability: active: 0.758
[3]
  probability: active: 0.882
[6]
  probability: active: 0.692
[4]
  probability: active: 0.999
[9]
  probability: active: 0.8
[5]
  probability: active: 0.998
[8]
  probability: active: 1

## O=C1c2c(O)ccc(O)c2C(=O)c2c(NCCNCCO)ccc(NCCNCCO)c21 [Mitoxantrone]
[2]
  probability: active: 0.999
[3]
  probability: active: 0.625
[6]
  probability: active: 0.973
[4]
  probability: active: 0.558
[5]
  probability: active: 0.996
[8]
  probability: active: 0.758
[1]
  probability: active: 0.661

## CCN(CC)C(=S)SSC(=S)N(CC)CC [Disulfiram]
[2]
  probability: active: 0.743
[4]
  probability: active: 0.834
[7]
  probability: active: 0.962
[9]
  probability: active: 0.732
[5]
  probability: active: 0.539

## COc1cc(NS(C)(=O)=O)ccc1Nc1c2ccccc2nc2ccccc12 [Amsacrine]
[3]
  probability: active: 0.814
[7]
  probability: active: 0.66
[9]
  probability: active: 0.891
[8]
  probability: active: 0.737
[1]
  probability: active: 0.663

## COc1cccc2c1C(=O)c1c(O)c3c(c(O)c1C2=O)C[C@@](O)(C(C)=O)C[C@@H]3O[C@H]1C[C@H](N)[C@H](O)[C@H](C)O1.Cl [Daunorubicin hydrochloride]
[3]
  probability: active: 0.744
[6]
  probability: active: 0.716
[4]
  probability: active: 0.759
[7]
  probability: active: 0.999
[9]
  probability: active: 0.907
[5]
  probability: active: 0.998
[8]
  probability: active: 0.997
[1]
  probability: active: 0.776

## CCC1(O)C(=O)OCc2c1cc1n(c2=O)Cc2cc3cc(O)ccc3nc2-1 (centres undefined) [Hydroxy Camptothecine]
[2]
  probability: active: 0.842
[3]
  probability: active: 0.985
[4]
  probability: active: 0.997
[9]
  probability: active: 0.53
[5]
  probability: active: 0.963

## Cl.Nc1ccn([C@@H]2O[C@H](CO)[C@@H](O)C2(F)F)c(=O)n1 [Gemcitabine HCl]
[2]
  probability: active: 0.952
[3]
  probability: active: 0.999
[6]
  probability: active: 0.713
[4]
  probability: active: 0.677
[7]
  probability: active: 0.986
[9]
  probability: active: 0.696
[5]
  probability: active: 0.995
[8]
  probability: active: 0.747
[1]
  probability: active: 0.782

## COc1cc([C@@H]2c3cc4c(cc3[C@@H](O[C@@H]3O[C@@H]5CO[C@@H](c6cccs6)O[C@H]5[C@H](O)[C@H]3O)[C@H]3COC(=O)[C@H]23)OCO4)cc(OC)c1O [Teniposide]
[2]
  probability: active: 0.953
[3]
  probability: active: 0.785
[7]
  probability: active: 0.925
[9]
  probability: active: 0.88
[5]
  probability: active: 0.653
[1]
  probability: active: 0.948

## Cn1ncnc1[C@H]1C2=c3c(cc(F)cc3=N[C@@H]1c1ccc(F)cc1)C(=O)NN2 [Talazoparib]
[6]
  probability: active: 0.882
[5]
  probability: active: 0.67
[1]
  probability: active: 0.707

## CC(C)C[C@H](NC(=O)CNC(=O)c1cc(Cl)ccc1Cl)B1OC(=O)CC(CC(=O)O)(C(=O)O)O1 (some centres undefined)
[2]
  probability: active: 0.999
[3]
  probability: active: 0.928
[6]
  probability: active: 0.738
[4]
  probability: active: 0.936
[7]
  probability: active: 0.904
[9]
  probability: active: 0.932
[5]
  probability: active: 0.671
[8]
  probability: active: 0.754

## CC(C)C[C@H](NC(=O)CNC(=O)c1cc(Cl)ccc1Cl)B(O)O [Ixazomib]
[2]
  probability: active: 0.999
[3]
  probability: active: 0.994
[6]
  probability: active: 0.918
[4]
  probability: active: 0.964
[7]
  probability: active: 0.99
[9]
  probability: active: 0.995
[5]
  probability: active: 1
[8]
  probability: active: 0.944
[1]
  probability: active: 0.994
